For 1 substance, binding results are on record in PMC7902631, “An ESCRT-dependent step in fatty acid transfer from lipid droplets to mitochondria through VPS13D−TSG101 interactions” (Nature Communications, 2021).

Sequences of proteins named here, by UniProt entry; tags and fusion partners are left off. A change or cut given only in a name is not applied to a line headed by its entry. A line that says so, or that is headed by a name, gives the form on record, which may keep a tag or linker.
superfolder green fluorescent protein (sfGFP)-tagged VPS13D (transcript variant 2, NM_018156) (Q5THJ4, form named): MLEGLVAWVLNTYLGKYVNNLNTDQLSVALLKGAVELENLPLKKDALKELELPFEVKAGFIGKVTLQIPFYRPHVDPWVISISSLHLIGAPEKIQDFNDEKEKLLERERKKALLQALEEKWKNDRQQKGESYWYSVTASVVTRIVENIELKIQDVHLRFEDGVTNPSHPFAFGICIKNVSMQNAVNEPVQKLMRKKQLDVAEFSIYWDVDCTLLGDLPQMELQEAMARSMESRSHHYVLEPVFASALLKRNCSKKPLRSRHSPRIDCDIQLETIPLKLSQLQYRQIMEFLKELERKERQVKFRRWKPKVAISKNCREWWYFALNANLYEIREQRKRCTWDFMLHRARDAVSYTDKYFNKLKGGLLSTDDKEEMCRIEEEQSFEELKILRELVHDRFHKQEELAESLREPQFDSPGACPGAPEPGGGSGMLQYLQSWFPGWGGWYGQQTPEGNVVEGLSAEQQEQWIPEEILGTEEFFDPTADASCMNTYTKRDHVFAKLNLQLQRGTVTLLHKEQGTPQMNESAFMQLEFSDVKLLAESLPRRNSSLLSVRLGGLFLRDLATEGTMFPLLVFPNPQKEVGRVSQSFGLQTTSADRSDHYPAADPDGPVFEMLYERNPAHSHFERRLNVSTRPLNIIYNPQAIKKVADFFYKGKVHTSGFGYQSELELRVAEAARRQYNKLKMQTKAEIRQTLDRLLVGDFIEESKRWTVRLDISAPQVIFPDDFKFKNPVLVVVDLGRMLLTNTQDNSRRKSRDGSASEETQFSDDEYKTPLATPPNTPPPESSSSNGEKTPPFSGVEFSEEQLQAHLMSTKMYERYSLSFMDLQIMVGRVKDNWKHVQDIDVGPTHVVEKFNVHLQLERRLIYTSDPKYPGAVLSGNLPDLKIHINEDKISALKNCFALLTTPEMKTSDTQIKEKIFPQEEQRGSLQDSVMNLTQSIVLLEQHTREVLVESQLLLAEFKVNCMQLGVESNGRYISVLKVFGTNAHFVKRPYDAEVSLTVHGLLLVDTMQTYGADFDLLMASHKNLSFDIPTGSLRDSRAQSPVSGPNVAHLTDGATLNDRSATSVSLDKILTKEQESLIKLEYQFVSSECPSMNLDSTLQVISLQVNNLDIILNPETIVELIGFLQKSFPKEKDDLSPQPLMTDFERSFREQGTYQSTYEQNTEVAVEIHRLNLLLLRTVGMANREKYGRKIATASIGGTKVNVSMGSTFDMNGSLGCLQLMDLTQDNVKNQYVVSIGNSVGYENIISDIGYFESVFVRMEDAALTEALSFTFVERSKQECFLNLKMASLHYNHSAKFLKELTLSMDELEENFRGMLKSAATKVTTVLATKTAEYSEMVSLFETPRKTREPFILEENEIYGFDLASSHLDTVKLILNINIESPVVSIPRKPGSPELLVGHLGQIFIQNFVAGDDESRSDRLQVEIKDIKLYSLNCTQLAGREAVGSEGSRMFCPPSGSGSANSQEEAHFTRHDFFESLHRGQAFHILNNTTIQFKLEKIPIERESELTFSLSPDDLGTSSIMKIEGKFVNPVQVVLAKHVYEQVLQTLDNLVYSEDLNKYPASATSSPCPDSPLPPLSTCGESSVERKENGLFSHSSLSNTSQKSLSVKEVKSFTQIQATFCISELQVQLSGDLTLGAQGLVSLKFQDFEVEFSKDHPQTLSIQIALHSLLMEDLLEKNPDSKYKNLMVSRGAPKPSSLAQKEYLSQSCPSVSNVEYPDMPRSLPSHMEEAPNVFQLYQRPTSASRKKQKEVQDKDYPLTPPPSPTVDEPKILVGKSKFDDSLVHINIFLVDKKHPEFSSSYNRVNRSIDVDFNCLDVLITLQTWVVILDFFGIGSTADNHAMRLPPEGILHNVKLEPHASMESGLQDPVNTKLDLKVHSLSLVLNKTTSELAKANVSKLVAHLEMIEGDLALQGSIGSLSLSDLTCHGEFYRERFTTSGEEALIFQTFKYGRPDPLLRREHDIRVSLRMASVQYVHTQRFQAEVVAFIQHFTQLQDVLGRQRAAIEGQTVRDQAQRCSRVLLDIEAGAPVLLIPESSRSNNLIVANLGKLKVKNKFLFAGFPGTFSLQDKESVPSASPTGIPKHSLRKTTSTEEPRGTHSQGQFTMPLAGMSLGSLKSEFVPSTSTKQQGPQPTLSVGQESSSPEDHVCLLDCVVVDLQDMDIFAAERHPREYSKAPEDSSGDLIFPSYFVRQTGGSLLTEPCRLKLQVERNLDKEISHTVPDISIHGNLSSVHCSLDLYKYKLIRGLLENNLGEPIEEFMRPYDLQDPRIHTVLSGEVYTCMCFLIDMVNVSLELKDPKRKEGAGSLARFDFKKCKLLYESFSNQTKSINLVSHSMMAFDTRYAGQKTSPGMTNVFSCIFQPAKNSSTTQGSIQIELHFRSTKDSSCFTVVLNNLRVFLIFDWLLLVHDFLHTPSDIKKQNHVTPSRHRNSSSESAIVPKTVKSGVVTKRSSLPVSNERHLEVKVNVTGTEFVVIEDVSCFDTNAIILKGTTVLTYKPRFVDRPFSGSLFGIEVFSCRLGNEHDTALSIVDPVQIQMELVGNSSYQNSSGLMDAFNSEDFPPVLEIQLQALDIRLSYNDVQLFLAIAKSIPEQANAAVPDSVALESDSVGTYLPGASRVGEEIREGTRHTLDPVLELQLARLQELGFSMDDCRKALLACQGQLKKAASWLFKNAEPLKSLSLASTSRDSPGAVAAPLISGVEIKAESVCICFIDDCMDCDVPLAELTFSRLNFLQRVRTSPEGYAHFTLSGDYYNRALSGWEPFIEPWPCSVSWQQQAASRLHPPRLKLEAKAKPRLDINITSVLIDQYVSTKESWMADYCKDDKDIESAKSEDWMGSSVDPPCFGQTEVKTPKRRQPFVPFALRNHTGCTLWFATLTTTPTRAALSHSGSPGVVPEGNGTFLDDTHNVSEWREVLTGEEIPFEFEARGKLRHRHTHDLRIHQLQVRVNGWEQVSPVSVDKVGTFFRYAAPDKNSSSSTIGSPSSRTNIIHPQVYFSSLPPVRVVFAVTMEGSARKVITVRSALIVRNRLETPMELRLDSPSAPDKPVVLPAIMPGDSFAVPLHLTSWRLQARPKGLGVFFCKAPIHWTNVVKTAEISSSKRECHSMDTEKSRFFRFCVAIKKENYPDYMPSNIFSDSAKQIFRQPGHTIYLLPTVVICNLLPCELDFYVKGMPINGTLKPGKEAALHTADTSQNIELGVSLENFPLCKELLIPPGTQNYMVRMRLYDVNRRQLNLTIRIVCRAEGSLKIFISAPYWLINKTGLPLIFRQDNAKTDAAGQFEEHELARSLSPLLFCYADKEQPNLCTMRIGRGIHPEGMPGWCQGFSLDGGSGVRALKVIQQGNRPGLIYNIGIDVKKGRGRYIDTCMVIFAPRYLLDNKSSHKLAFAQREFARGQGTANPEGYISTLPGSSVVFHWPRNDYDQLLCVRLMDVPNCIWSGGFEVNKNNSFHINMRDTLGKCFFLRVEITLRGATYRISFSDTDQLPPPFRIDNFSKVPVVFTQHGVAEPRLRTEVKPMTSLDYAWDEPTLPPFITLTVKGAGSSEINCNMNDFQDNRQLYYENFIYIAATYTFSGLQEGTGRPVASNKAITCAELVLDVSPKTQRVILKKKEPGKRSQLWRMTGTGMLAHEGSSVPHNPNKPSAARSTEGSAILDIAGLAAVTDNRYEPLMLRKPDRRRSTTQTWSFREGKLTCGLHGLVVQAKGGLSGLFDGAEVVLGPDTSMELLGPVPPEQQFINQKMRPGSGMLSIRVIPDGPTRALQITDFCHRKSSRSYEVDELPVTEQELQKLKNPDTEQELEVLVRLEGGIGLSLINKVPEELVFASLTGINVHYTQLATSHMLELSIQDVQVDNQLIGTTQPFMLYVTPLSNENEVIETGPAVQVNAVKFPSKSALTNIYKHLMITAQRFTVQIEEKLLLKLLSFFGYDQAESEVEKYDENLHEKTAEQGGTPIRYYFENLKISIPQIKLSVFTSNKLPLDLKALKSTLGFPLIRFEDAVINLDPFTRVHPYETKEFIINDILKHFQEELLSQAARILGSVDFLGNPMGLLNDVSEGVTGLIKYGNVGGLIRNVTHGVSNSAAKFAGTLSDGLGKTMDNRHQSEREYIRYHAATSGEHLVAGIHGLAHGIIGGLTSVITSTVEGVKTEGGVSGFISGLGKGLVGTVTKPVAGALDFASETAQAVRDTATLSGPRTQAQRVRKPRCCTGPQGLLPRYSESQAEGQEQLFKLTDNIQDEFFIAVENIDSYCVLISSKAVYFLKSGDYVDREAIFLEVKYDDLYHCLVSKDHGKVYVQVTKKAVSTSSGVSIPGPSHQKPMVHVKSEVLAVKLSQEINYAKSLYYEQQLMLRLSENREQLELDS
UniProt Q99816: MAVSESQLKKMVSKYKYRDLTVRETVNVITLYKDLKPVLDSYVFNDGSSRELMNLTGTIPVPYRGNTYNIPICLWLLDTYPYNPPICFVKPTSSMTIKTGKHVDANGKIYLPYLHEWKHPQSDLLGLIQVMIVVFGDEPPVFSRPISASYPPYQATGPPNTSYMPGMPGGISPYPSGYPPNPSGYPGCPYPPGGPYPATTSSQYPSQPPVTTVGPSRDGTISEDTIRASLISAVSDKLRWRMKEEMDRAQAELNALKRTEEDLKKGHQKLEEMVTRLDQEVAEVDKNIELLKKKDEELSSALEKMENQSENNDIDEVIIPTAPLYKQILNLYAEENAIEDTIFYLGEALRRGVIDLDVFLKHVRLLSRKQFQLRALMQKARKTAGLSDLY

This test concerns the target superfolder green fluorescent protein (sfGFP)-tagged VPS13D (transcript variant 2, NM_018156) (human) (UniProt Q5THJ4). Nature of the test: co-IP; GFP-Trap agarose beads (ChromoTek) on lysates of HEK293 cells, by the manufacturer's protocol; GFP-tagged protein held, partner detected by western blot (anti-TSG101 or anti-Halo); 5% input.

No constants are given. Whether binding was seen depends on the method and setting. Binding seen in cells or lysates may run through a third protein. Some results given as binding are weak or reduced against the parent protein; the word gives no strength.

“TSG101 found with VPS13D in the GFP-Trap of Supplementary Fig. 4b (endogenous or Halo-tagged not stated) (from UniProt Q99816 1-390)”: the binding entry is reported as “binds”.
